The results in this text go back to article PMC7359039, “Peptides based on the reactive center loop of Manduca sexta serpin-3 block its protease inhibitory function” (Scientific Reports, 2020).

These are yes or no findings as the source states them, for the method shown. A result given as binding can be weak or reduced; the word gives no strength.

Experiment [1] deals with Manduca sexta serpin-3∆N (Manduca sexta). As to the kind of experiment: SDS-stable covalent complex by reducing SDS-PAGE and immunoblot; serpin-3ΔN (135 ng) incubated with pre-dried peptide (25 nmol) or dried TFE at 37 °C for 2 h, then PAP3 (108 ng) with 18 µg BSA added, 10 min at room temperature; blot with serpin-3 antiserum; both purified. For orientation: A western blot detects proteins with antibodies after separation by electrophoresis.

For experiment [2] the target is unchanged. Description: circular dichroism (spectrum and thermal stability) after gel permeation chromatography; serpin-3ΔN (150 µg) and Ac-SVAFS-COO^− (25 µmol) incubated at 37 °C for 2 h; Superdex 200 10/300 GL in 20 mM Tris-HCl, 150 mM NaCl, pH 8.0 to remove free peptide; CD 190-260 nm in 10 mM Tris, 5 mM NaCl, pH 8.0, 20 to 90 °C; both purified. On the technique in general: Circular dichroism is widely used to follow secondary structure.

Regarding SVAFSATQ (N-terminal acetyl; C-terminal amide) [Ac-SVAFSATQ-NH2], the binding result in experiment [1] is listed as “binds”.
For SVAFS (N-terminal acetyl; C-terminal amide) [Ac-SVAFS-NH2], the binding result in experiment [1] is “binds”.
Still for that read-out and setting: next, SVAFSAT (N-terminal acetyl; C-terminal amide) [Ac-SVAFSAT-NH2]: “binds”.
Take SVAFS (N-terminal acetyl; free carboxyl end) [Ac-SVAFS-COO^−]: in experiment [2], the binding entry is listed as “binds”.
